Screen size: about 53,000 sequences; about 3,700 (7%) were called active.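 The calls were made as follows: active = gene knockdowns whose robust z-score for IL-1 alpha signal is at least 2 or at most -2, so actives lie on both sides; inactive = the rest.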 Some of the results follow.
Assay: Components of the Cytosolic LPS Sensing Pathway: Gene Identification via Genome-wide siRNA Screen;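 also: robust z of the log signal after scaling to non-targeting control siRNA wells of the plate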
Conditions: RAW264.7 macrophages, IL-1a HTRF, actives lie on both sides, screened at 100 nM (by protocol), cells primed 5 h with Pam3CSK4 first
Summary of the method: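 Using IL-1a HTRF as read-out, the screen measured release from RAW264.7 cells after 48h siRNA knockdown (100 nM), 5 h Pam3CSK4 priming and 24 h cytosolic LipidA. Values were expressed relative to negative-control wells as robust z-scores.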

z-score, active:
GGAAGAGAGAUUCCUAUAGTT against Sec11a -2.03
GGAGACAACAACAAGACAUTT against Tbk1 3.12
GGAUCAAAAGGUGAAUGCUTT against Vmn1r67 -2.54
GCUUCUGCUUGUUCGCUAGTT against Usp17ld 2.7
GGCCUCAUGCAGGAACAUUTT against Polr2d -2.34
GGACAAAUUUGCAUAGAUUTT against Rab10os 2.93
GGAGAUCUCCUCAGCCACATT against Gemin4 -2.14

z-score, inactive:
GGGAUGGAAGAAUGUAAUGTT against Slc30a9 -1.04
GGUGAUAACUGUAUUUCAGTT against Ftsj1 0.101
GCGCAGAGAUUACCUUAAGTT against Gtf3a -0.543
GGAAAAGUUCUUAAUGGAGTT against Cpsf7 -0.961
GGAGCCAUGACUUUUCACUTT against Sec22b 0.716
GGUACUACUUAGUUUUACUTT against Creg1 1.05
CGGCGGUUUGCUCUAUUCGTT against Pou3f2 0.918
CCCUCAUCGUGUCUAUCAUTT against Unc13a -0.233
CCUCUCAUGUAUCCUGUGATT against Olfr292 -0.205
GCCACUGUUUGUAGGAACGTT against Mmp11 -0.59
GCGGGUUCUUUAUGACCCUTT against Car11 0.384
CCAUCACUGUCGCCUAUUGTT against Zdhhc24 0.165
CCUUCUAGCCAAGACUGGATT against Epha10 0.194
GGACAUUGUCUACAAGUUGTT against Pcgf2 1.12
GCCAUUCUCCAUUGAGCUGTT against Pik3cd -0.513
GCCACAGGAAUACAAUGUCTT against Il3ra -0.484
GGUAUACAGGAUGUUAAGGTT against Pdlim4 0.889
GGAGGGUGAAGAGAAUGGUTT against R3hdm2 1.14
GGAAACUUUCUAAAUGCUGTT against Pja1 -0.0964
GCGACUUGGAGAGCAUUUGTT against Trim3 -0.368
CGAAGAGUCCAUCAUUGCGTT against Dcpp1 0.302
GGAUCCGUUCAGCAGAAGGTT against Olfr1045 1
GCCUGACAUUGGGACAAAGTT against Trim34a 0.179
GGAGAUGGAGAUUAACGACTT against Atp4a -0.137
GCACAUGUGGAUUUCCAUCTT against Olfr547 0.237
GGAUAAAGUCACCUUCAUCTT against Itgam 1.86
GGAUCGGCACUGGCAUGAATT against Fhl2 -0.388
GGACUACUCCAGAAAGCUUTT against Wdfy3 -0.0605
GCUAAGAGUGCAGGAUUGGTT against Lhx2 -1.22
GCUACCUACGAUGUUCAAATT against Tomm34 1.85
GCGGCCUUCGAAGAUAUUCTT against Pnliprp2 -0.144
GGCUCAGCUAAGAAAUACGTT against Ngdn -0.462
GCAUUAUCUGUGAAAAUCCTT against En2 0.262
GGGUCGGCUUAUAAUUACUTT against Adam6b -0.0247
GGGUAAGCCAAGAAGAAGUTT against Rgs4 -1.01
CCUUACUUGAUAAUCCAAATT against Dlg1 0.84
CCUAAGGCUCAAUGAGCCUTT against Etfb 0.879
GGGAACCGUUCUUUACUUATT against Psd3 1.56
CCAAAAGCUACGUGCCGUATT against Kif5a 0.257
GGGUCAAUCAACUUCGAGGTT against Pkp2 1.14
GGAAAUUAAGUGGAGAUCATT against Ebag9 -0.493
GGUGAUGGACGGAAGAAGATT against Pigc -1.1
GGAAGACAACUGAACAUUUTT against Ralgds 0.837
GCAGGUCUAAUAAUGGUCATT against Syt12 -0.536
GGCACCUAUGAGGUUCUAUTT against Sec16b -0.615
GCACAAAUCUCUAAAGAUCTT against Cxcr6 0.238
GGAGACAAAGCAUUAUCUATT against Usp33 -0.366
GGUUGAAAAGAAGUACAGUTT against Ctcf -0.559
GGCACACUUAAGUAAAAGUTT against Kras -0.542
GGACCCUCUAGAUGACCAATT against Trem2 -1.09
CCACAUUUCUCUAACGAACTT against Prkra -0.447
GCGUGGCUGUCAUGUAUUUTT against Olfr231 0.247
ACUGGUGUUUCACCAUCAGTT against Tmem199 -1.49
GGCAGCAAAAAGGUUGAUUTT against Olfr1110 -0.875
GGUACUAGAUAGGAAACACTT against Ggact -1.8
GGAAAUGCUCAAAGAUUUUTT against Cenpe 0.115
GGUAACAAACCGAAAGUAUTT against Polr3k -0.539
CCUCUUUGGGACUAUAGACTT against Olfr1357 -0.378
GGAUCUGGCGGUUACUAAGTT against Gm867 0.776
CCAGAUUCAGUACCUCUAGTT against Kctd3 0.805
GCCGUACUUCGUCAAGCUATT against Ung 0.395
GGUUUCAUUUUUCGAGGAGTT against Cit -0.269
GCUGAAAGAAUUCGUGGACTT against Phf2 1.69
CGACCAUUGUGACUGGAGATT against Olfr782 0.2
GCUUUUGAAGCGACUGGGATT against Frk -0.0967
CCGUGGACAUGAAAACACCTT against Ly6g6e 0.713
GCUUCAAUGAGGAGUAUCUTT against Smpdl3b -0.617
GGUUUCAAUAAUCCAGGAATT against Naa16 0.352
GGAAUUUUGGAAUCACUAGTT against Ssr1 -0.699
GGUCUAUCAGUGCAUCGUGTT against BC052040 0.0181
CCGUAAGUCUCGGAUCUCCTT against Plcxd1 0.373
GCCUUUCCUACUAUGAAUATT against Bmx 0.748
GGGAUCAUAGACGAUAUUUTT against Fnbp4 -1.59
GGCUUCAUGCUGGUCCUUGTT against Pim2 -1.62
GGUGAAGACCUUUGUCUCCTT against Matn3 -0.122
GGCUGACCACCAAAUUGUUTT against Krtap1-5 -0.583
GGGUAAUUUUGAUAUUGUCTT against Dpm1 -1.1
GGCAACUCUAUAGAAGAAATT against Trim65 -0.831
CCCAACUUCAUUUGUGUAUTT against Itga4 -0.406
GCUGGAUCUAGGUACCAAGTT against Slx1b -0.313
GCAGGUGAAACAAUCGCCUTT against Ctnnal1 -1.01
CGGCAAGUUUAAGAAGGACTT against Uqcr11 -0.848
CCAAGGGUUGUUAAGUAUUTT against Cdh26 1.08
CCAAGAUUCGGUUUUGCUUTT against Trerf1 -0.33
GGUUGUGAGUGAGAACACUTT against Prss35 0.738
GGGAGCCACUCUGAAGAUCTT against Pkm -0.744
GGAACAAGAACAAAAAGCATT against Cwc15 -1.47
CUUCCAGUGUAGACUUAUGTT against 9430025C20Rik 1.61
CCAGUAUGUCUGUAAGUGATT against Wnt5b -0.126
GGAGAUGCAGGUCUUCUUGTT against Adipoq 0.326
GUGAUGCGCAUUUCGAGUCTT against Sf3b5 -0.335
GCCAAUCCCUAUGAGAUGATT against Cmtr1 0.44
GCCAUUGAUUGAACUCUCCTT against Pip5k1a -0.381
GCAAGGAAGGAUAUUACACTT against Mmp24 1.34
GAAGCCUGGAAGGAAAACUTT against Smim11 0.971
GGAAAAGGCAAUCGUUUCUTT against Mtg2 0.278
GGUGAAAAAAGGAAGCAAATT against Senp6 1.15
GCUGGGUGAAUAAUGUUAATT against Sytl2 0.774
GGCUAACCGUGGCUUCAUCTT against Lamc1 -1.65
GCGUUUGUGAAGCAUAUCATT against Myl3 -0.276

No new results follow: entries from further up.
z-score, inactive:
GGAAGACAACUGAACAUUUTT against Ralgds 0.837
GCAGGUCUAAUAAUGGUCATT against Syt12 -0.536
GGCACCUAUGAGGUUCUAUTT against Sec16b -0.615

2 entries picked at random from the list so far:
z-score, inactive:
GCGACUUGGAGAGCAUUUGTT against Trim3 -0.368
GGAGAUGCAGGUCUUCUUGTT against Adipoq 0.326

Source: PubChem BioAssay AID1508600 (Functional Genomics Laboratory (NCATS/FGL), 2020)
